PubChem BioAssay AID504784 – Drosophila RNAi Screening Center – 2011
The screen tested about 17,000 reagents; this is a random part of those that have a named target and a result. 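Each column is one replicate's B-score; the combined score over replicates was not deposited, so single values may mislead.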 Names joined by + are all predicted targets of the reagent.

Screen: 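Genome-wide knock-down for genes giving too much or too little stored lipid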 (primary screen)
Cell system: Drosophila Kc167 embryonic cells
Reagents: long dsRNA against Drosophila genes, about 250 ng dsRNA per well
Duration: 4 days
Treatment: cells fed 400 µM oleic acid bound to BSA
Measured: 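Cells imaged and segmented; ratio of lipid droplet area to nuclear area, log-transformed, then normalised as a B-score over the screen; higher means more stored lipid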
Direction: droplet/nuclear area B-score: higher = more stored lipid (overstorage)

predicted target | amplicon | droplet/nuclear area B-score, replicate 1 | droplet/nuclear area B-score, replicate 2 | droplet/nuclear area B-score, replicate 3
mRpL9 | DRSC15678 | 0.823 | 0.223 | –
Nelf-A | DRSC15903 | 1.12 | 0.132 | –
GXIVsPLA2 | DRSC10243 | -1.39 | -0.422 | 0.0124
CG31717 | DRSC01121 | -0.96 | -0.105 | –
eya | DRSC03510 | 1.06 | 0.0665 | –
QIL1 | DRSC10888 | -0.0202 | -0.798 | –
CG7879 | DRSC08600 | 1.54 | 0.12 | –
CG12863 | DRSC06203 | -2.01 | -0.0357 | –
CG3597 | DRSC00617 | 0.00585 | -1.91 | –
SCaMC | DRSC10293 | -0.61 | 0.629 | –
SCaMC | DRSC10415 | 1.96 | 1.88 | –
bumpel | DRSC16100 | 0.591 | -1.64 | –
Chchd3 | DRSC16981 | 3.13 | 2.31 | –
CG7031 | DRSC16178 | -0.878 | 0.287 | –
CG7031 | DRSC23028 | -0.546 | -0.0923 | –
BNIP3 | DRSC11761 | 0.393 | 0.911 | –
ProtA | DRSC03372 | -0.318 | 0.42 | –
lwr | DRSC00828 | -0.109 | 0.7 | –
Noa36 | DRSC16761 | 1.4 | – | –
wake | DRSC16148 | 0.307 | 0.892 | –
wake | DRSC16149 | 1.92 | 2.55 | –
CG4073 | DRSC15542 | -0.4 | 3.89 | –
CG30487 | DRSC05377 | 0.331 | 0.878 | –

Quoted from above for reference:
predicted target | amplicon | droplet/nuclear area B-score, replicate 1 | droplet/nuclear area B-score, replicate 2 | droplet/nuclear area B-score, replicate 3
CG3597 | DRSC00617 | 0.00585 | -1.91 | –
SCaMC | DRSC10293 | -0.61 | 0.629 | –
SCaMC | DRSC10415 | 1.96 | 1.88 | –

Continued:
predicted target | amplicon | droplet/nuclear area B-score, replicate 1 | droplet/nuclear area B-score, replicate 2 | droplet/nuclear area B-score, replicate 3
CG14647 | DRSC12233 | 0.11 | 0.197 | 2.14
CG14647 | DRSC22497 | 0.133 | 0.35 | –
Asap | DRSC06493 | 0.581 | -1.04 | –
Asap | DRSC06830 | -0.738 | -0.744 | –
CG9410 + CG15908 | DRSC04976 | 2.32 | 2.15 | –
CG9410 + CG15908 | DRSC05001 | -0.382 | 1.25 | –
CG16700 | DRSC19755 | -1.05 | 1.22 | –
TTLL6B | DRSC15932 | -0.262 | -1.68 | –
CG31259 | DRSC14366 | -0.119 | 1.17 | –
Cpr49Ad | DRSC07284 | -1.07 | 0.256 | –
mRpL35 | DRSC14586 | 3.08 | 0.209 | –
CG12498 | DRSC18635 | -0.227 | 0.435 | –
CG33271 | DRSC10583 | 3.39 | 2.27 | –
Cmtr1 | DRSC18400 | 1.62 | -0.0283 | –
CG5828 | DRSC02900 | 0.0985 | 0.859 | –
CG33981 + fab1 | DRSC07412 | 0.847 | -0.28 | –
upd3 | DRSC19636 | -1.38 | -1.67 | –
upd3 | DRSC19968 | 2.27 | 0.572 | –
upd3 | DRSC22169 | -0.00197 | 0.593 | –
CG13287 | DRSC09961 | -1.52 | -1.29 | –
CG10062 | DRSC05960 | -1.44 | -0.469 | –
CG10062 | DRSC22535 | -1.46 | -3.39 | –
CG33080 | DRSC18080 | -0.489 | -0.498 | –
CG33080 | DRSC18081 | -0.708 | -1.76 | –
CG33080 | DRSC18285 | -0.0423 | -0.337 | –
CG15548 | DRSC15086 | -1.82 | 0.546 | –
lectin-28C | DRSC03010 | 0.0285 | 0.85 | –
Crys | DRSC03294 | -0.834 | -0.0418 | –
lbe | DRSC16985 | -0.583 | – | –
Muc68Ca | DRSC10312 | 0.0218 | 0.478 | –
Muc68Ca | DRSC10313 | 0.991 | 0.262 | –
GstT4 | DRSC19757 | 0.977 | 1.36 | -1.62
Klp31E | DRSC03354 | 0.127 | -1.07 | –
